Experimental data: the supplement of paper PMC7666118
The other results are listed elsewhere or left out.

Chains of the proteins cited; added tags and fusions are not shown. Lines headed by an entry give the natural chain unless they say otherwise; changes in a name come on top.
UniProt P61244, whole entry: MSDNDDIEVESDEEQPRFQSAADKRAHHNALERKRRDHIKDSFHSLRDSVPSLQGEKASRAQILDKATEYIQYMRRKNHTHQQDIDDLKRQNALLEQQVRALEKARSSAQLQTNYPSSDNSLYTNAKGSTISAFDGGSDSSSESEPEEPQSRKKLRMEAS
UniProt Q14703: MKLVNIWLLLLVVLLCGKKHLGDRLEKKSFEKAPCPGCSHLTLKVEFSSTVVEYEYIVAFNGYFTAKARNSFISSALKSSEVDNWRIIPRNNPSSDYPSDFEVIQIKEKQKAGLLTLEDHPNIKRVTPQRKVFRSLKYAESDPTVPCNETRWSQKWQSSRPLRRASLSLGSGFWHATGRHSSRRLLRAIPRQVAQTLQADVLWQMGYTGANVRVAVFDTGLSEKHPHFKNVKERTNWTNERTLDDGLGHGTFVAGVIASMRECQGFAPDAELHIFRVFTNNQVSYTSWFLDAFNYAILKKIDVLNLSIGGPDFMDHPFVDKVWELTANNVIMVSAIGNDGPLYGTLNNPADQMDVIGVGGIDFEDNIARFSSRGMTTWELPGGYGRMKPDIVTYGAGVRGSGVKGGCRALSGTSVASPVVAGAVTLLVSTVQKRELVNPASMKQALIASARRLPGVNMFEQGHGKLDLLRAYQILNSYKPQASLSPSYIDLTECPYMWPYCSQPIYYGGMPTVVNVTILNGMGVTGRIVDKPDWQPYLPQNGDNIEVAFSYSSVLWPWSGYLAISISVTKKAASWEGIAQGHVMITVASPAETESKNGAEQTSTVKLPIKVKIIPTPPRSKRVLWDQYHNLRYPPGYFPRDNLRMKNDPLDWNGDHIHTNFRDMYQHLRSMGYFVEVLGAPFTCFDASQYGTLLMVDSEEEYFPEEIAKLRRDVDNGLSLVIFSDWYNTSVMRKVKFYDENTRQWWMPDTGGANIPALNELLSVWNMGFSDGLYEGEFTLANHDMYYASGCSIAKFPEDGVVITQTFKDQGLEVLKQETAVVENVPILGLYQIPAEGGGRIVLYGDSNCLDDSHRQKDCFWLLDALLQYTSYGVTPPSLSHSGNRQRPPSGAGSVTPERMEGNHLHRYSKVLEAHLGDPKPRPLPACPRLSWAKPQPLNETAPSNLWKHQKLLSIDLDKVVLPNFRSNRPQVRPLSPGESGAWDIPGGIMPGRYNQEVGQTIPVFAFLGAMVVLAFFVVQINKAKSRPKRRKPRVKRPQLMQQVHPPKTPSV
UniProt P48059, whole entry: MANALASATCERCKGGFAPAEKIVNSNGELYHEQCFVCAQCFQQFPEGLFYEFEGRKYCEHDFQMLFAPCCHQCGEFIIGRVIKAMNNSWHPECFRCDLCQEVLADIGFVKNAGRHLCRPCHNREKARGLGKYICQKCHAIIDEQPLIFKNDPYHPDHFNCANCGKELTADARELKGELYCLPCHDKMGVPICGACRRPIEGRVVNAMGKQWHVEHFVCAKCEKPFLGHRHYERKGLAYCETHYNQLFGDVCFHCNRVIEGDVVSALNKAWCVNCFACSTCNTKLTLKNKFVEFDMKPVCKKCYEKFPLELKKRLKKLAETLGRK
UniProt Q86WA8: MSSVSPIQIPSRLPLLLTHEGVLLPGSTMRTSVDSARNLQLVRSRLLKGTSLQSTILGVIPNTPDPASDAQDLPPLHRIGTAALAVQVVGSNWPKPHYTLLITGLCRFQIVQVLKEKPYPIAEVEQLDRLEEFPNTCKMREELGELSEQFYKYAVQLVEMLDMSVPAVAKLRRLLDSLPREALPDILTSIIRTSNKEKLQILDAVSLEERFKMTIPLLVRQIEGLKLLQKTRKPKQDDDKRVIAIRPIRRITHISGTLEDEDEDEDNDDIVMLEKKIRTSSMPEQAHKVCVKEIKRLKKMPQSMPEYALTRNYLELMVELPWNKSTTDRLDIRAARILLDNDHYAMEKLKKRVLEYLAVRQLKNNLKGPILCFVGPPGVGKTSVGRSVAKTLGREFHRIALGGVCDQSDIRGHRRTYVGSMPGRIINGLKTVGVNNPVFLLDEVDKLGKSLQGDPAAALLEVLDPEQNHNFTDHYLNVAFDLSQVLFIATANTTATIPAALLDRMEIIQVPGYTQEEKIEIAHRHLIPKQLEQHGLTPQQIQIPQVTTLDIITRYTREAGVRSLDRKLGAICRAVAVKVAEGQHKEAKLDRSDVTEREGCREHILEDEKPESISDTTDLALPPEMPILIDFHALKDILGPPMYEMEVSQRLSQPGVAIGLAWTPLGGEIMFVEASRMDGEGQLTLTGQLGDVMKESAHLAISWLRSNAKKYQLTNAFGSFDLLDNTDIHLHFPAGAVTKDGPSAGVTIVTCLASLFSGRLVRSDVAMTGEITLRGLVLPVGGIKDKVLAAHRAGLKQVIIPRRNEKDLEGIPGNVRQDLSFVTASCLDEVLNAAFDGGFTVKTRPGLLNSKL
UniProt O60476: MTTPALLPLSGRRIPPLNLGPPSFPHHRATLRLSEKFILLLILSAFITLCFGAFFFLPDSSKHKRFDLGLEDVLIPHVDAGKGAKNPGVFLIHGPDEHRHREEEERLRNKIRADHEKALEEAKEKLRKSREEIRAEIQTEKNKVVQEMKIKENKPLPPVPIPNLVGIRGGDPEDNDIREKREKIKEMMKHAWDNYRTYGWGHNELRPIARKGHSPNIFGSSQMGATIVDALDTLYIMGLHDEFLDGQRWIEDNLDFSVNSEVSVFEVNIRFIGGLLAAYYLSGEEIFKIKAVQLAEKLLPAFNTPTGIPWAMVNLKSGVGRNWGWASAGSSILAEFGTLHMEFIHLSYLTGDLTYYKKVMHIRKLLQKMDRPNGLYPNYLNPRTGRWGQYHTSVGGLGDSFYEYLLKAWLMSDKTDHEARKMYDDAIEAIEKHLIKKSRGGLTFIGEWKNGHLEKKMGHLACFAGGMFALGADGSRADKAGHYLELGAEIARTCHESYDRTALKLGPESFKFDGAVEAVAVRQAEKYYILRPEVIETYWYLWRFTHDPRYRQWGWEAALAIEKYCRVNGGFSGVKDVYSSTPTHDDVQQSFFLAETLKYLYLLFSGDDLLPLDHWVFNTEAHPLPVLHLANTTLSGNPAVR
UniProt Q9H089: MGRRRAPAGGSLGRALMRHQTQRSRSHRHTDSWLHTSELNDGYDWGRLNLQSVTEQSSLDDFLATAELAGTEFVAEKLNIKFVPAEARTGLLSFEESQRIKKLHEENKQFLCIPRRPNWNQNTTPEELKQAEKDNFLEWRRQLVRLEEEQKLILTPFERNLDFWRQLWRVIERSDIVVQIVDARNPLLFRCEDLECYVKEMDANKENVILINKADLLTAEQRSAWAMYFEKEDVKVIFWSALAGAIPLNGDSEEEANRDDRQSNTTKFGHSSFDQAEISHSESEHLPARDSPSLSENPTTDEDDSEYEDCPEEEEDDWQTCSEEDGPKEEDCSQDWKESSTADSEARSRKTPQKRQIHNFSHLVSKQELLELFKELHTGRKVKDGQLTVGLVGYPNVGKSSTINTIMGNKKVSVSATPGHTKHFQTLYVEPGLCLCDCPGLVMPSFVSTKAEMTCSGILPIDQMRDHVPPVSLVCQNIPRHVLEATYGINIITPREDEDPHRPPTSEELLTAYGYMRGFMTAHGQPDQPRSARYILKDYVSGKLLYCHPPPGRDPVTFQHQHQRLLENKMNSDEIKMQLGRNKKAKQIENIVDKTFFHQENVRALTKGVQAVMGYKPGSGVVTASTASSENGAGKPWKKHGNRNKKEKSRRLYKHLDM
UniProt P27361, whole entry: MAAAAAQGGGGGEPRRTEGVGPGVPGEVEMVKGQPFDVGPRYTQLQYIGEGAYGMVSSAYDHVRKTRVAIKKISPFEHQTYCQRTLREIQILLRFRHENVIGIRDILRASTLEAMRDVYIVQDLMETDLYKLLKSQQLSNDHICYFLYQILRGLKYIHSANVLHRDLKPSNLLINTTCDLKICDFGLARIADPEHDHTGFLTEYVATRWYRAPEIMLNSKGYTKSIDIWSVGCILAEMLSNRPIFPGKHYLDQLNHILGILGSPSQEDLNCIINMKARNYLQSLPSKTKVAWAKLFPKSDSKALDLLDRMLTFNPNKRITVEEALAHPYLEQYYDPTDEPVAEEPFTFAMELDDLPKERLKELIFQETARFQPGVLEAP
UniProt P43243: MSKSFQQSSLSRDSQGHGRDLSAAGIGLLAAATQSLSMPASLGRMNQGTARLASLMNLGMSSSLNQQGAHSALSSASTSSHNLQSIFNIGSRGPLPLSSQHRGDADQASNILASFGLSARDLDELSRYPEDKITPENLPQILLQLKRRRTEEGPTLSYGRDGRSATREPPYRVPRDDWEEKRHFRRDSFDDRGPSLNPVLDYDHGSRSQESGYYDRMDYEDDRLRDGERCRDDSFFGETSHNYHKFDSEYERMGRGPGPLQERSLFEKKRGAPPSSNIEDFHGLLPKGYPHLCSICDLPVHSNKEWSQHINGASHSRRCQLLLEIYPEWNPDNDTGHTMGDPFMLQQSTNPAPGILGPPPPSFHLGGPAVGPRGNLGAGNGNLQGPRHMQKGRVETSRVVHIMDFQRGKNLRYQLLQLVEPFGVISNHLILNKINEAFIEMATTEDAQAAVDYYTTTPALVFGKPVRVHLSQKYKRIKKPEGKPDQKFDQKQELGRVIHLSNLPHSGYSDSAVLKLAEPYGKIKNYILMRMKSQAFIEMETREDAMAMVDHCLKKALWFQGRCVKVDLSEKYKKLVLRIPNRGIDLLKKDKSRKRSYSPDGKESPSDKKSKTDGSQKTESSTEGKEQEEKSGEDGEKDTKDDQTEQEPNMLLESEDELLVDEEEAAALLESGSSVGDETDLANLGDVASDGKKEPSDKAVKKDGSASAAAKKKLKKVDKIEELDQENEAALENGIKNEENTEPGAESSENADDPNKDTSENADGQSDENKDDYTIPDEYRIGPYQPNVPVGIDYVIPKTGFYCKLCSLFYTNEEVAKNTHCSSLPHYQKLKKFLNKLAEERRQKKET
UniProt Q9Y2E5: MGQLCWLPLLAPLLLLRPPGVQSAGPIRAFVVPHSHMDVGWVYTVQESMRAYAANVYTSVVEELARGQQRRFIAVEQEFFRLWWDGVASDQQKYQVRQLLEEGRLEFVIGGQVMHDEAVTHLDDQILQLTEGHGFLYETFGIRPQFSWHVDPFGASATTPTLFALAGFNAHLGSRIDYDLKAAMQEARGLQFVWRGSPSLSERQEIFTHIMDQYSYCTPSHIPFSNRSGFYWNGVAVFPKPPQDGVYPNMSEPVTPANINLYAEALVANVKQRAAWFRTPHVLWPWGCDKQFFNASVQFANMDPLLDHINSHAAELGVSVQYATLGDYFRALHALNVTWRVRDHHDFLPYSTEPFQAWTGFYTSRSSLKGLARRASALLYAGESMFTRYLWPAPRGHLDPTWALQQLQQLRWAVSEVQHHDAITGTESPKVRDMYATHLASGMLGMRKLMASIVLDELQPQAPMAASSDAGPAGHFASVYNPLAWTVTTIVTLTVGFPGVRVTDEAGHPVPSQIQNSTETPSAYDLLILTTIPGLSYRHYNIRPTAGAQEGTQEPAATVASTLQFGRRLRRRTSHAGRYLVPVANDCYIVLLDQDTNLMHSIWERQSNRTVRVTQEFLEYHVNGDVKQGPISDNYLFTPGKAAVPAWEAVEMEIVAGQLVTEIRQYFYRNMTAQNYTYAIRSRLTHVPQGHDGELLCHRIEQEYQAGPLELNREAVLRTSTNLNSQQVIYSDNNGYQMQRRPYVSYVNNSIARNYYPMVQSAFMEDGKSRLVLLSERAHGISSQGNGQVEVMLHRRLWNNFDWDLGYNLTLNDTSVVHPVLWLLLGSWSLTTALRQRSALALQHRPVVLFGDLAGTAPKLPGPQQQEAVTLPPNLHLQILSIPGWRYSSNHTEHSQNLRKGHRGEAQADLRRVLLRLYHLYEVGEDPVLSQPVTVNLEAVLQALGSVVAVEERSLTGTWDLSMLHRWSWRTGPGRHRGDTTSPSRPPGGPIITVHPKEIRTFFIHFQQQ
UniProt P02545: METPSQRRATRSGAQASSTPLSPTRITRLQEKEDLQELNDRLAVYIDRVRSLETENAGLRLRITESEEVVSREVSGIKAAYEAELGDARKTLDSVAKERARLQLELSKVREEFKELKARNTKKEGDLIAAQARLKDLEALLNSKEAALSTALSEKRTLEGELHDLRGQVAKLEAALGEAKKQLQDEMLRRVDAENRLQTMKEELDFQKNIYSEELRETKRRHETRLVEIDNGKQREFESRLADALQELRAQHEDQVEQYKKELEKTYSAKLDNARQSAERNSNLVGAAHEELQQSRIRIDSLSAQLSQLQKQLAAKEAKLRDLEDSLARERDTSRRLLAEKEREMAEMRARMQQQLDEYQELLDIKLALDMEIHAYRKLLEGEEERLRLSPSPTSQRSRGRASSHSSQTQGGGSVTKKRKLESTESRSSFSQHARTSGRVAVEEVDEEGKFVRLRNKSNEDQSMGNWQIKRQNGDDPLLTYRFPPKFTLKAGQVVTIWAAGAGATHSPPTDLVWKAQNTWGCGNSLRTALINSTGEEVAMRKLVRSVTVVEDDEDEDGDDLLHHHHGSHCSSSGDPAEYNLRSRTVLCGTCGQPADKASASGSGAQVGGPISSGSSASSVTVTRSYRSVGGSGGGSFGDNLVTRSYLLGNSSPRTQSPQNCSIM

Compound: COc1ccc(Cn2ccc3cc(C)c(C(=O)NO)cc32)cc1
Assay: dose-dependent thermal stabilisation call (2D-TPP, DLPTP, 10% FDR) (binary (1 = stabilised)); higher = stabilised by the compound
Details: system: HL-60 intact cells; concentration range 0.04-10 µM
Protocol: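 2D thermal proteome profiling in intact HL-60 cells treated with BRD-3811 (0, 0.04, 0.29, 2, 10 uM) for 90 min at 37 C, then heated 3 min at one of 12 temperatures (42-63.9 C). Soluble protein was quantified by TMT10 MS. The value is the DLPTP call of the paper: dose-dependent thermal stabilisation over all temperatures at 10% FDR (F-test of a dose-response against a flat model); one experiment, one call per tested protein.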

| Target | dose-dependent thermal stabilisation call |
| --- | --- |
| MACF1 | inactive: 0 |
| LRPPRC (UniProt P42704) | inactive: 0 |
| LOC728944 | inactive: 0 |
| MAX (UniProt P61244) | inactive: 0 |
| LOC100128155 | inactive: 0 |
| MBTPS1 (UniProt Q14703) | inactive: 0 |
| MAPRE1 (UniProt Q15691) | inactive: 0 |
| MAN2A2 (UniProt P49641) | inactive: 0 |
| LIMS1 (UniProt P48059) | inactive: 0 |
| MARCH6 (UniProt O60337) | inactive: 0 |
| M6PRBP1 (UniProt O60664) | inactive: 0 |
| MAGOH (UniProt P61326) | inactive: 0 |
| LEO1 (UniProt Q8WVC0) | inactive: 0 |
| LIG1 (UniProt P18858) | inactive: 0 |
| LONP2 (UniProt Q86WA8) | inactive: 0 |
| LPCAT4 (UniProt Q643R3) | inactive: 0 |
| MAN1A2 (UniProt O60476) | inactive: 0 |
| LIAS (UniProt O43766) | inactive: 0 |

| Target | dose-dependent thermal stabilisation call |
| --- | --- |
| LPCAT1 (UniProt Q8NF37) | inactive: 0 |
| LOC100132129 | inactive: 0 |
| LSG1 (UniProt Q9H089) | inactive: 0 |
| MAPK3 (UniProt P27361) | inactive: 0 |
| MATR3 (UniProt P43243) | inactive: 0 |
| MAN2B2 (UniProt Q9Y2E5) | inactive: 0 |
| LIPA (UniProt P38571) | inactive: 0 |
| LMNA (UniProt P02545) | inactive: 0 |
| LRCH4 (UniProt O75427) | inactive: 0 |
| MAGEB2 (UniProt O15479) | inactive: 0 |
| MCART1 (UniProt Q9H1U9) | inactive: 0 |
| MCTS1 (UniProt Q9ULC4) | inactive: 0 |
| LAMP2 (UniProt P13473) | inactive: 0 |
| LEMD2 (UniProt Q8NC56) | inactive: 0 |
| LARP4 (UniProt Q71RC2) | inactive: 0 |
| LAMC1 (UniProt P11047) | inactive: 0 |
| LBR (UniProt Q14739) | inactive: 0 |
| MADD (UniProt Q8WXG6) | inactive: 0 |

Look-ups from the list:
Value of MCTS1 (UniProt Q9ULC4) under dose-dependent thermal stabilisation call: inactive: 0
Value of LPCAT1 (UniProt Q8NF37) under dose-dependent thermal stabilisation call: inactive: 0
